PubChem BioAssay AID1508597 – Cure First – 2020
Shown is a random part of the about 2,100 reagents, in one setting of the screen. 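Calls flag viability under 80% in either arm, not effects specific to rucaparib; the reference for percent is not stated.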 A reagent listed more than once was tested more than once; the source does not tell the runs apart. The record does not give: the 100% reference.

Assay: 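Genes whose silencing sensitises or protects ovarian cancer cells against rucaparib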 (primary screen)
Cell system: human ovarian carcinoma lines grown from tumours: OCI-P5x (papillary serous) and OCI-C5x (clear cell)
Reagent: siRNA pool against human genes, 1.25 pmol siRNA per well
Time to read-out: 72 h or 96 h, depending on the cell culture
Conditions: rucaparib 20 µM (about IC30) or vehicle, present until read-out
Rucaparib or vehicle: Vehicle
Cell line: OCI-C5x (clear cell)
Read-out: 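Luminescent ATP-based viability assay read 72 or 96 h after transfection, depending on culture, given as normalised percent viability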
Reading the numbers: viability, normalised: higher = more viable cells remaining
Call rule: 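a well counts as a hit if its normalised viability is under 80 percent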
Meaning of the calls: active = viability under 80%; inactive = viability 80% or more

target gene	technical replicate	viability, normalised (%)	outcome
MAPK15 (GeneID 225689)	1	52.7	active
MAPK15 (GeneID 225689)	2	48.4	active
MAPK15 (GeneID 225689)	3	62.4	active
IFI6 (GeneID 2537)	1	26.4	active
IFI6 (GeneID 2537)	2	32	active
IFI6 (GeneID 2537)	3	35.6	active
NCOA1 (GeneID 8648)	1	38.8	active
NCOA1 (GeneID 8648)	2	40.4	active
NCOA1 (GeneID 8648)	3	45.2	active
MUSK (GeneID 4593)	1	68.1	active
MUSK (GeneID 4593)	2	69.9	active
MUSK (GeneID 4593)	3	57.4	active
PSKH2 (GeneID 85481)	1	58.8	active
PSKH2 (GeneID 85481)	2	57.3	active
PSKH2 (GeneID 85481)	3	63.3	active
NR1H3 (GeneID 10062)	1	65.5	active
NR1H3 (GeneID 10062)	2	51.2	active
NR1H3 (GeneID 10062)	3	55.2	active
EPHA1 (GeneID 2041)	1	59.6	active
EPHA1 (GeneID 2041)	2	54.7	active
EPHA1 (GeneID 2041)	3	55.3	active
PFKP (GeneID 5214)	1	45.4	active
PFKP (GeneID 5214)	2	51.8	active
PFKP (GeneID 5214)	3	44.6	active

Reformatted: results already given.
MUSK (GeneID 4593), technical replicate 3
- viability, normalised (%): 57.4
- outcome: active

PSKH2 (GeneID 85481), technical replicate 1
- viability, normalised (%): 58.8
- outcome: active

PSKH2 (GeneID 85481), technical replicate 2
- viability, normalised (%): 57.3
- outcome: active

PSKH2 (GeneID 85481), technical replicate 3
- viability, normalised (%): 63.3
- outcome: active

NR1H3 (GeneID 10062), technical replicate 1
- viability, normalised (%): 65.5
- outcome: active

Next results follow.
target gene	technical replicate	viability, normalised (%)	outcome
MUS81 (GeneID 80198)	1	49.7	active
MUS81 (GeneID 80198)	2	59.4	active
MUS81 (GeneID 80198)	3	47.5	active
EMSY (GeneID 56946)	1	42.9	active
EMSY (GeneID 56946)	1	44.7	active
EMSY (GeneID 56946)	2	72.4	active
EMSY (GeneID 56946)	2	40.5	active
EMSY (GeneID 56946)	3	62.2	active
EMSY (GeneID 56946)	3	40	active
ATAD2 (GeneID 29028)	1	39.9	active
ATAD2 (GeneID 29028)	2	40.9	active
ATAD2 (GeneID 29028)	3	36.1	active
BRD4 (GeneID 23476)	1	41.6	active
BRD4 (GeneID 23476)	1	84.3	inactive
BRD4 (GeneID 23476)	1	59.6	active
BRD4 (GeneID 23476)	1	59.3	active
BRD4 (GeneID 23476)	2	53.8	active
BRD4 (GeneID 23476)	2	67.6	active
BRD4 (GeneID 23476)	2	39.7	active
BRD4 (GeneID 23476)	2	58.6	active
BRD4 (GeneID 23476)	3	70.1	active
BRD4 (GeneID 23476)	3	63.8	active
BRD4 (GeneID 23476)	3	46.4	active
BRD4 (GeneID 23476)	3	50.5	active
CACNA1G (GeneID 8913)	1	62.5	active
CACNA1G (GeneID 8913)	2	68.2	active
CACNA1G (GeneID 8913)	3	52.4	active
TFAP2A (GeneID 7020)	1	52.7	active
TFAP2A (GeneID 7020)	2	57.3	active
TFAP2A (GeneID 7020)	3	49.3	active
ZNF623 (GeneID 9831)	1	68.4	active
ZNF623 (GeneID 9831)	2	56.4	active
ZNF623 (GeneID 9831)	3	58.1	active
